# Measurements published in PMC6339880.
# Results are given in words; binding and its absence hold for the method and conditions named. Binding seen in cells or lysates may run through a third protein. Here binding means that the protein was enriched with, or labelled near, the bait; the list need not be complete.
# T1: Strep-LpxC (E. coli) (UniProt P0A725)
# T1 sequence: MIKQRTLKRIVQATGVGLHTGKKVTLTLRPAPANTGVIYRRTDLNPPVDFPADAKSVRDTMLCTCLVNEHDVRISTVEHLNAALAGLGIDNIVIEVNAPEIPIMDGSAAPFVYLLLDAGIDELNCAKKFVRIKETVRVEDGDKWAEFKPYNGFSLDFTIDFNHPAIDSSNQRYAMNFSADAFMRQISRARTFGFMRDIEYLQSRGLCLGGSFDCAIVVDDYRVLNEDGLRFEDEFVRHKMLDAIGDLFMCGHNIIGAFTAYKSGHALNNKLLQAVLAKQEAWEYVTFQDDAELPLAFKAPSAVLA
# Target: T1, Strep-LpxC (E. coli)
# Assay: affinity purification with mass spectrometry; Strep-LpxC overproduced in E. coli BL21 Δarg/Δlys grown at 30°C (slow), 37°C (medium) or 40°C (fast growth); Strep-tactin affinity purification from the lysate; co-purified proteins identified by LC-MS/MS with a super-SILAC standard; enriched >2-fold over the Strep-tag empty-vector control, p<0.05, or 'LpxC only'
row,binding,Binder
1,binds,"BasS (enzyme, UniProt P30844 1-363) MHFLRRPISLRQRLILTIGAILLVFELISVFWLWHESTEQIQLFEQALRDNRNNDRHIMREIREAVASLIVPGVFMVSLTLFICYQAVRRITRPLAELQKELEARTADNLTPIAIHSATLEIEAVVSALNDLVSRLTSTLDNERLFTADVAHELRTPLAGVRLHLELLAKTHHIDVAPLVARLDQMMESVSQLLQLARAGQSFSSGNYQHVKLLEDVILPSYDELSTMLDQRQQTLLLPESAADITVQGDATLLRMLLRNLVENAHRYSPQGSNIMIKLQEDDGAVMAVEDEGPGIDESKCGELSKAFVRMDSRYGGIGLGLSIVSRITQLHHGQFFLQNRQETSGTRAWVRLKKDQYVANQI"
2,binds,"PgpC (enzyme, UniProt P0AD42 1-211) MATHERRVVFFDLDGTLHQQDMFGSFLRYLLRRQPLNALLVLPLLPIIAIALLIKGRAARWPMSLLLWGCTFGHSEARLQTLQADFVRWFRDNVTAFPLVQERLTTYLLSSDADIWLITGSPQPLVEAVYFDTPWLPRVNLIASQIQRGYGGWVLTMRCLGHEKVAQLERKIGTPLRLYSGYSDSNQDNPLLYFCQHRWRVTPRGELQQLE"
3,binds,"AccD (enzyme, UniProt P0A9Q5 1-304) MSWIERIKSNITPTRKASIPEGVWTKCDSCGQVLYRAELERNLEVCPKCDHHMRMTARNRLHSLLDEGSLVELGSELEPKDVLKFRDSKKYKDRLASAQKETGEKDALVVMKGTLYGMPVVAAAFEFAFMGGSMGSVVGARFVRAVEQALEDNCPLICFSASGGARMQEALMSLMQMAKTSAALAKMQERGLPYISVLTDPTMGGVSASFAMLGDLNIAEPKALIGFAGPRVIEQTVREKLPPGFQRSEFLIEKGAIDMIVRRPEMRLKLASILAKLMNLPAPNPEAPREGVVVPPVPDQEPEA"
4,binds,"ArnB (enzyme, UniProt P77690 1-385) MAEGKAMSEFLPFSRPAMGVEELAAVKEVLESGWITTGPKNQALEQAFCQLTGNQHAIAVSSATAGMHITLMALKIGKGDEVITPSLTWVSTLNMISLLGATPVMVDVDRDTLMVTPEAIESAITPRTKAIIPVHYAGAPADIDAIRAIGERYGIAVIEDAAHAVGTYYKGRHIGAKGTAIFSFHAIKNITCAEGGLIVTDNENLARQLRMLKFHGLGVDAYDRQTWGRAPQAEVLTPGYKYNLTDINAAIALTQLVKLEHLNTRRREIAQQYQQALAALPFQPLSLPAWPHVHAWHLFIIRVDEQRCGISRDALMEALKERGIGTGLHFRAAHTQKYYRERFPTLSLPNTEWNSERICSLPLFPDMTTADADHVITALQQLAGQ"
5,binds,"FabI (enzyme, UniProt P0AEK4 1-262) MGFLSGKRILVTGVASKLSIAYGIAQAMHREGAELAFTYQNDKLKGRVEEFAAQLGSDIVLQCDVAEDASIDTMFAELGKVWPKFDGFVHSIGFAPGDQLDGDYVNAVTREGFKIAHDISSYSFVAMAKACRSMLNPGSALLTLSYLGAERAIPNYNVMGLAKASLEANVRYMANAMGPEGVRVNAISAGPIRTLAASGIKDFRKMLAHCEAVTPIRRTVTIEDVGNSAAFLCSDLSAGISGEVVHVDGGFSIAAMNELELK"
6,binds,"FabG (enzyme, UniProt P0AEK2 1-244) MNFEGKIALVTGASRGIGRAIAETLAARGAKVIGTATSENGAQAISDYLGANGKGLMLNVTDPASIESVLEKIRAEFGEVDILVNNAGITRDNLLMRMKDEEWNDIIETNLSSVFRLSKAVMRAMMKKRHGRIITIGSVVGTMGNGGQANYAAAKAGLIGFSKSLAREVASRGITVNVVAPGFIETDMTRALSDDQRAGILAQVPAGRLGGAQEIANAVAFLASDEAAYITGETLHVNGGMYMV"
7,binds,"ArnC (enzyme, UniProt P77757 1-322) MFEIHPVKKVSVVIPVYNEQESLPELIRRTTTACESLGKEYEILLIDDGSSDNSAHMLVEASQAENSHIVSILLNRNYGQHSAIMAGFSHVTGDLIITLDADLQNPPEEIPRLVAKADEGYDVVGTVRQNRQDSWFRKTASKMINRLIQRTTGKAMGDYGCMLRAYRRHIVDAMLHCHERSTFIPILANIFARRAIEIPVHHAEREFGESKYSFMRLINLMYDLVTCLTTTPLRMLSLLGSIIAIGGFSIAVLLVILRLTFGPQWAAEGVFMLFAVLFTFIGAQFIGMGLLGEYIGRIYTDVRARPRYFVQQVIRPSSKENE"
8,binds,"FabA (enzyme, UniProt P0A6Q3 1-172) MVDKRESYTKEDLLASGRGELFGAKGPQLPAPNMLMMDRVVKMTETGGNFDKGYVEAELDINPDLWFFGCHFIGDPVMPGCLGLDAMWQLVGFYLGWLGGEGKGRALGVGEVKFTGQVLPTAKKVTYRIHFKRIVNRRLIMGLADGEVLVDGRLIYTASDLKVGLFQDTSAF"
9,binds,"PyrH (enzyme, UniProt P0A7E9 1-241) MATNAKPVYKRILLKLSGEALQGTEGFGIDASILDRMAQEIKELVELGIQVGVVIGGGNLFRGAGLAKAGMNRVVGDHMGMLATVMNGLAMRDALHRAYVNARLMSAIPLNGVCDSYSWAEAISLLRNNRVVILSAGTGNPFFTTDSAACLRGIEIEADVVLKATKVDGVFTADPAKDPTATMYEQLTYSEVLEKELKVMDLAAFTLARDHKLPIRVFNMNKPGALRRVVMGEKEGTLITE"
10,binds,"PssA (enzyme, UniProt P23830 1-451) MLSKFKRNKHQQHLAQLPKISQSVDDVDFFYAPADFRETLLEKIASAKQRICIVALYLEQDDGGKGILNALYEAKRQRPELDVRVLVDWHRAQRGRIGAAASNTNADWYCRMAQENPGVDVPVYGVPINTREALGVLHFKGFIIDDSVLYSGASLNDVYLHQHDKYRYDRYHLIRNRKMSDIMFEWVTQNIMNGRGVNRLDDVNRPKSPEIKNDIRLFRQELRDAAYHFQGDADNDQLSVTPLVGLGKSSLLNKTIFHLMPCAEQKLTICTPYFNLPAILVRNIIQLLREGKKVEIIVGDKTANDFYIPEDEPFKIIGALPYLYEINLRRFLSRLQYYVNTDQLVVRLWKDDDNTYHLKGMWVDDKWMLITGNNLNPRAWRLDLENAILIHDPQLELAPQREKELELIREHTTIVKHYRDLQSIADYPVKVRKLIRRLRRIRIDRLISRIL"
11,binds,"HldD (enzyme, UniProt P67910 1-310) MIIVTGGAGFIGSNIVKALNDKGITDILVVDNLKDGTKFVNLVDLNIADYMDKEDFLIQIMAGEEFGDVEAIFHEGACSSTTEWDGKYMMDNNYQYSKELLHYCLEREIPFLYASSAATYGGRTSDFIESREYEKPLNVYGYSKFLFDEYVRQILPEANSQIVGFRYFNVYGPREGHKGSMASVAFHLNTQLNNGESPKLFEGSENFKRDFVYVGDVADVNLWFLENGVSGIFNLGTGRAESFQAVADATLAYHKKGQIEYIPFPDKLKGRYQAFTQADLTNLRAAGYDKPFKTVAEGVTEYMAWLNRDA"
12,binds,"AccA (enzyme, UniProt P0ABD5 1-319) MSLNFLDFEQPIAELEAKIDSLTAVSRQDEKLDINIDEEVHRLREKSVELTRKIFADLGAWQIAQLARHPQRPYTLDYVRLAFDEFDELAGDRAYADDKAIVGGIARLDGRPVMIIGHQKGRETKEKIRRNFGMPAPEGYRKALRLMQMAERFKMPIITFIDTPGAYPGVGAEERGQSEAIARNLREMSRLGVPVVCTVIGEGGSGGALAIGVGDKVNMLQYSTYSVISPEGCASILWKSADKAPLAAEAMGIIAPRLKELKLIDSIIPEPLGGAHRNPEAMAASLKAQLLADLADLDVLSTEDLKNRRYQRLMSYGYA"
13,binds,"PlsB (enzyme, UniProt P0A7A7 1-807) MSGWPRIYYKLLNLPLSILVKSKSIPADPAPELGLDTSRPIMYVLPYNSKADLLTLRAQCLAHDLPDPLEPLEIDGTLLPRYVFIHGGPRVFTYYTPKEESIKLFHDYLDLHRSNPNLDVQMVPVSVMFGRAPGREKGEVNPPLRMLNGVQKFFAVLWLGRDSFVRFSPSVSLRRMADEHGTDKTIAQKLARVARMHFARQRLAAVGPRLPARQDLFNKLLASRAIAKAVEDEARSKKISHEKAQQNAIALMEEIAANFSYEMIRLTDRILGFTWNRLYQGINVHNAERVRQLAHDGHELVYVPCHRSHMDYLLLSYVLYHQGLVPPHIAAGINLNFWPAGPIFRRLGAFFIRRTFKGNKLYSTVFREYLGELFSRGYSVEYFVEGGRSRTGRLLDPKTGTLSMTIQAMLRGGTRPITLIPIYIGYEHVMEVGTYAKELRGATKEKESLPQMLRGLSKLRNLGQGYVNFGEPMPLMTYLNQHVPDWRESIDPIEAVRPAWLTPTVNNIAADLMVRINNAGAANAMNLCCTALLASRQRSLTREQLTEQLNCYLDLMRNVPYSTDSTVPSASASELIDHALQMNKFEVEKDTIGDIIILPREQAVLMTYYRNNIAHMLVLPSLMAAIVTQHRHISRDVLMEHVNVLYPMLKAELFLRWDRDELPDVIDALANEMQRQGLITLQDDELHINPAHSRTLQLLAAGARETLQRYAITFWLLSANPSINRGTLEKESRTVAQRLSVLHGINAPEFFDKAVFSSLVLTLRDEGYISDSGDAEPAETMKVYQLLAELITSDVRLTIESATQGEG"
14,binds,"PgsA (enzyme, UniProt P0ABF8 1-182) MQFNIPTLLTLFRVILIPFFVLVFYLPVTWSPFAAALIFCVAAVTDWFDGFLARRWNQSTRFGAFLDPVADKVLVAIAMVLVTEHYHSWWVTLPAATMIAREIIISALREWMAELGKRSSVAVSWIGKVKTTAQMVALAWLLWRPNIWVEYAGIALFFVAAVLTLWSMLQYLSAARADLLDQ"
